Earlier results as cited in patent publication US9737526B2, “Methods for treating Parkinson's disease” (INNOTESTO BVBA, priority 2012, dated 2017).
Some of these results come from one statement about several compounds together.

Test system: ciliated respiratory tissue
Details: 25% propylene glycol, 15% glycerol, 25% polyethylene glycol 400, 5% povidone (WO2005/067893); cited from earlier work

Compound	time to complete reversal of effects on CBF after rinsing with pure Locke-Ringer solution [min]
CC(O)CO (centres unmarked) [propylene glycol]	≤ 20
OCC(O)CO [glycerol]	≤ 20
